PubChem BioAssay AID463205 (Broad Institute, 2010)
Screen size: about 2,400 compounds; about 20 (0.8%) were called active.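 The calls were made as follows: active = AC50 no more than ten times the highest tested concentration, or full inhibition at every dose giving a flat fit (cut at about 30 µM in these data); inconclusive = flat fit with activity between 30% and 70%, or poor-quality invalid fit; inactive = AC50 more than ten times the top tested dose.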 Some of the results follow.

Test: inhibitors of ADP-Glo detection reagents, dose response, artefact control for GSK-3a inhibitor project, biochemical, luminescence, cell-free, homogeneous (AID 463205);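 also: kinase-free counter-screen against the ADP-Glo detection reagents only; potency is for inhibitors that reduce the luminescence signal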
Settings: 5 uM ADP

AC50, inactive:
O=C(Nc1sc2c(c1C(=O)N1CCOCC1)CCCCC2)c1cccnc1 > 30 µM, O=C(OC1CO[C@H]2O[C@@H]1[C@H](OC(=O)c1ccccc1)[C@H]2OC(=O)c1ccccc1)c1ccccc1 (some centres not stated) > 30 µM, CC/C(=N\NC(=O)c1nnn(-c2nonc2N)c1-c1cccs1)c1ccccc1 > 30 µM, COc1ccccc1NC(=O)CSc1nnc(-c2ccc(C)cc2)o1 > 30 µM, COc1ccc(NC(=O)c2c(Nc3ccccc3)sc(C(=O)c3ccc(F)cc3)c2N)cc1 > 30 µM, COc1ccc(Nc2cc(C)nc(N)n2)cc1 > 30 µM, C=CCc1cc(/C=N/n2cnnc2)cc(OCC)c1O > 30 µM, CNC(=O)CSc1nnc(-c2ccco2)n1-c1ccccc1OC > 30 µM, CCOC(=O)C1=C(c2ccccc2)Nc2ncnn2C1c1cccc(O)c1 (configuration not stated) > 30 µM, COc1cc2c(cc1OC)C(C)N(C(=O)Cn1ncc3c1-c1cc(C)ccc1OC3)CC2 (configuration not stated) > 30 µM, CC(C)N=C(NC#N)SCc1ccc(F)cc1 > 30 µM, Cc1cccc(-n2nc(C)c3c2NC2=C(C(=O)CCC2)C3c2ccccn2)c1 (configuration not stated) > 30 µM, CC(=O)c1sc(NC(=O)CN2C(=O)NC3(CCCC3)C2=O)nc1-c1ccccc1 > 30 µM, COc1ccc(C(=O)c2c(C(F)(F)F)oc3c2C(=O)c2ccccc2C3=O)cc1 > 30 µM, CCOC(=O)N1CCc2c(sc3nc4n(c(=O)c23)N=C(c2ccc(OC)cc2)CS4)C1 > 30 µM, CCCC(=O)NC(=S)Nc1ccc(C(C)=O)cc1 > 30 µM, CCOc1ccc(NC(=O)N(C2CCCCC2)C(C)c2cccnc2)cc1 (configuration not stated) > 30 µM, CC1(C)Cc2nc3oc4c(=S)nc[nH]c4c3cc2CO1 > 30 µM, NS(=O)(=O)c1ccc(-c2ccc(/C=C3\SC(=O)NC3=O)o2)cc1 > 30 µM, O=C(N/N=C/c1ccccn1)c1cccc(NC(=O)c2ccccc2Cl)c1 > 30 µM, O=C(OCC1OC2OC3(CCCCC3)OC2C2OC3(CCCCC3)OC12)c1ccccc1 (configuration not stated) > 30 µM, Nc1ncnc2nc(SCc3ccc(Cl)cc3Cl)[nH]c12 > 30 µM, CCSc1ncnc2c1sc1nc3c(cc12)COC(C)(C)C3 > 30 µM, CC(C)c1[nH]nc2c1C(c1ccco1)C(C#N)=C(N)O2 (configuration not stated) > 30 µM, Cc1cccc(C)c1OC(=O)Cc1ccccc1[N+](=O)[O-] > 30 µM, NC(=O)c1cc([N+](=O)[O-])ccc1NCc1cccc(N)c1 > 30 µM, COc1ccc(/C=C2\Oc3cc(OCC(=O)N4CCC[C@H]4C(=O)O)ccc3C2=O)c(OC)c1OC > 30 µM, O=C(CSc1nc2[nH]ncc2c(=O)n1-c1ccccc1Br)NCc1ccccc1Cl > 30 µM, C/C(CC(=O)N(C(C)C)C(C)C)=N\NC(=O)COc1ccc(Br)cc1Br > 30 µM, Nc1nc(-c2ccccc2)cc(-c2ccccc2O)n1 > 30 µM, Cc1ccc2nc(C3CCCCC3)[nH]c2c1 > 30 µM, COc1ccc(/C=C2\Oc3cc(OCC(=O)N4CC(O)C[C@H]4C(=O)O)ccc3C2=O)c(OC)c1OC (some centres not stated) > 30 µM, CC1CCCN(C(=O)CCc2nnc(-c3ccc4c(c3)OCO4)o2)C1 (configuration not stated) > 30 µM, CC1(C)CC(=O)C2=C(C1)Nc1[nH]n(-c3ccccc3)c(=O)c1C2c1ccc2c(c1)OCO2 (configuration not stated) > 30 µM, N#C/C(C(N)=O)=C1/CCc2ccccc2N1 > 30 µM, COc1ccc(-c2noc(CSc3nc(-c4ccccc4)cc(=O)[nH]3)n2)cc1OC > 30 µM, CCOC(=O)c1nnn(-c2nonc2N)c1-c1ccccc1 > 30 µM, N/C(=N\OC(=O)c1ccco1)c1ccc(Cl)cc1 > 30 µM, CCOC(=O)c1nnn(-c2nonc2N)c1-c1cccc2ccccc12 > 30 µM, COc1cccc(N/C(SC)=C(/C#N)C(N)=O)c1 > 30 µM, CCC(=O)Nc1sc2c(c1C(N)=O)CCC2 > 30 µM, COc1ccc(-n2c(C)c([N+](=O)[O-])c3ccc(O)c(CN(C)C)c32)cc1 > 30 µM, COc1ccc(CCNc2nc(C)c(C(C)=O)s2)cc1OC > 30 µM, COc1cccc(-c2c(C(=O)N/N=C(\C)c3cccnc3)nnn2-c2nonc2N)c1 > 30 µM, COc1ccccc1N1CCN(C(=O)c2cc(-c3ccccc3)on2)CC1 > 30 µM, CC1CCN(Cc2c(C(=O)N/N=C/c3ccc(C(C)C)cc3)nnn2-c2nonc2N)CC1 > 30 µM, CCOC(=O)N1CCN(C(=O)CSc2ccc3nnc(-c4ccccn4)n3n2)CC1 > 30 µM, Cc1ccc(N(Cc2ccc([N+](=O)[O-])cc2)C(=O)c2ccco2)cc1 > 30 µM, Cc1ccc2oc(=O)c3cnn(CC(=O)N4CCc5ccccc5C4)c3c2c1 > 30 µM, O=C(Nc1cccc(O)c1)c1ccc([N+](=O)[O-])cc1Cl > 30 µM, CNC(=O)NCC12CC3CC(CC(C3)C1)C2 > 30 µM, N/C(=N\OC(=O)c1ccc2ccccc2c1)c1cccc([N+](=O)[O-])c1 > 30 µM, CC(=O)Nc1ccc(OC(=O)CC2SC(=O)NC2=O)cc1 (configuration not stated) > 30 µM, Cc1cccc(-c2c3c(=O)n(C)c(=O)n(C)c3c3cccnn23)c1 > 30 µM, Cc1ccc(-n2nnnc2SCc2nnc(-c3ccccc3Br)o2)cc1 > 30 µM, COC(=O)[C@@H](NC(=O)NCc1ccccc1Cl)C(C)C > 30 µM, NS(=O)(=O)c1ccc(Nc2nc(-c3ccc(O)cc3)cs2)cc1 > 30 µM
